# At least one structure is not confirmed: it was looked up by name or label, or the drawing left a doubt.
# Tested on: endogenous Class IIa HDACs
# Assay: Subcellular fractionation of primary hepatocytes
# Assay type: cell-based, mouse
# Details: 100 nM Glucagon or 10 uM Forskolin for 1 h
smiles,measurement,value
C=C[C@@]1(C)CC(=O)[C@]2(O)[C@@]3(C)[C@@H](O)CCC(C)(C)[C@@H]3[C@H](O)[C@H](OC(C)=O)[C@@]2(C)O1 [forskolin],localization of endogenous Class IIa HDACs,translocate fully into the nucleus
